# Test results taken from PubChem BioAssay (Tox21).
# Chains of the proteins cited; added tags and fusions are not shown. Lines headed by an entry give the natural chain unless they say otherwise; changes in a name come on top.
# UniProt P11229: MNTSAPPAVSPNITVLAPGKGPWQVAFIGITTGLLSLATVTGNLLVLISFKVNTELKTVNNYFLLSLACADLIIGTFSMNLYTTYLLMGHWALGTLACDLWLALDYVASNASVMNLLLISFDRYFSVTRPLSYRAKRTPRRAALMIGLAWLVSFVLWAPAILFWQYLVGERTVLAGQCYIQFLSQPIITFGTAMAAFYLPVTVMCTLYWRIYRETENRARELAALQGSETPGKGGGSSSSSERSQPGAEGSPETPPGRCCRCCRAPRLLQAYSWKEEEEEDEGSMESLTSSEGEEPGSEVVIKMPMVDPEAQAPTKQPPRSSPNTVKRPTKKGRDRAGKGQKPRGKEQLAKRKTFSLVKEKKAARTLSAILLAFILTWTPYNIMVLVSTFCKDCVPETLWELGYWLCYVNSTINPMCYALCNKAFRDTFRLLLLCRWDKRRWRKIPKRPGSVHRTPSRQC
# UniProt P14416, whole entry, looked up: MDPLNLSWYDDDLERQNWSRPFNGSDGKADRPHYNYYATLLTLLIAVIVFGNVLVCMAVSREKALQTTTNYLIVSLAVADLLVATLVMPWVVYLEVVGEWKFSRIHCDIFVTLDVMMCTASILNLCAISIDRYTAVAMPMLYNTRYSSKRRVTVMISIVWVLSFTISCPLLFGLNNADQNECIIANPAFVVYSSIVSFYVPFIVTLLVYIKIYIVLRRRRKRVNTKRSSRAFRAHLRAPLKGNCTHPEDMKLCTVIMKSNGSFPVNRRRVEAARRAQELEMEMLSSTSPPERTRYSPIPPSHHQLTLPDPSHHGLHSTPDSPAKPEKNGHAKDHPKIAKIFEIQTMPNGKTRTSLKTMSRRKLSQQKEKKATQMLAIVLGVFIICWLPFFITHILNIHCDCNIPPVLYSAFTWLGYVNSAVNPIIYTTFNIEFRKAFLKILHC
# Values joined by “and” are separate entries in the source; they are usually repeats but may differ in a detail not shown here. Equal entries are not always repeated. Inconclusive results, whose numbers are uncertain, are shown with a selection of clear calls. For part of these data: Potencies beside an inconclusive call are fits to weak or partial responses and may not hold up. Active and inactive are the calls of the source. Unless noted, calls come from the whole dose curve.
# Columns and labels:
# [1] = Nuclear factor erythroid 2-related factor 2/antioxidant responsive element (Nrf2/ARE) small molecule agonists: luciferase reporter gene qHTS assay in human keratinocytes (AID 1919969); settings: KeratinoSens HaCaT ARE-luciferase, luminescence, 24 h; activity, positive = activation: at 92.4 µM (top of the series); note: nearly all actives have a fitted effect of over 35% in size; note: potency is the fitted concentration of half-maximal effect
# [2] = cAMP Responsive Elements (CRE) small molecule agonists, cell-based qHTS assay (AID 1963590); settings: CRE-bla HEK293T, beta-lactamase FRET ratio, 3 h; activation: at 92.4 µM (top of the series) unless noted; note: potency is the fitted concentration of half-maximal effect; for activation: % is set by controls: 0 for no effect and ±100 for the full control effect
# Procedure, shortened: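 CRE-bla HEK 293T cells in DMEM with 10% dialyzed FBS, NEAA, pyruvate and 25 mM HEPES were plated 18 h at 37 C/5% CO2, then exposed to compounds in DMSO for 3 h before LiveBLAzer B/G FRET substrate addition.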
# [3] = cAMP Responsive Elements (CRE) small molecule antagonists, cell-based qHTS assay (AID 1963591; active = well fitted inhibition curve with a large enough effect in the signal ratio in the repeat runs, not every such curve was filed as active; inconclusive = weak or mixed curves, or effect the other way; the % refers to the signal ratio; note: potency is the fitted concentration of half-maximal effect; for activity change, negative = inhibition: % is set by controls: 0 for no effect and ±100 for the full control effect); settings: CRE-bla HEK293T, beta-lactamase FRET ratio; activity change, negative = inhibition: at 92.4 µM (top of the series) unless noted
# Procedure, shortened: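 CRE-bla HEK293T cells were plated 18 h at 37 °C/5% CO2, pinned with compound in DMSO, then stimulated with NKH477 at 0.25 uM final for 3 h. LiveBLAzer B/G FRET substrate was added and plates incubated 2 h at room temperature.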
# [4] = target: Beta-2 adrenergic receptor (Homo sapiens) (UniProt P07550); experiment: Adrenergic beta2 receptor (ADRB2) small molecule antagonists, cell-based qHTS assay (AID 1963592); settings: CHO-ADRB2 cells, isoproterenol-stimulated cAMP HTRF ratio, 0.5 h; activity change, negative = inhibition: at 92.4 µM (top of the series) unless noted; note: % is set by controls: 0 for no effect and ±100 for the full control effect; nearly all actives have a fitted effect of over 50% in size
# Procedure, shortened: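 Cells (CHO, stable ADRB2 overexpression) incubated 18-20hr at 37C; compounds added from DMSO; agonist mix (1nM isoproterenol, 100uM IBMX, 25uM Ro-20-1724) added; 0.5hr RT; d2-cAMP and anti-cAMP-cryptate added; 1hr RT; 665/615 nm read.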
# [5] = target: Beta-2 adrenergic receptor (Homo sapiens) (UniProt P07550); experiment: Adrenergic beta2 receptor (ADRB2) small molecule agonists, cell-based qHTS assay (AID 1963593); settings: CHO-ADRB2 cells, cAMP HTRF, 30 min; activation: at 92.4 µM (top of the series) unless noted;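 note: CHO cells stably overexpressing human ADRB2; % is set by controls: 0 for no effect and ±100 for the full control effect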
# Procedure, shortened: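 CHO cells stably over-expressing ADRB2 were plated overnight at 37C, then dosed with compounds plus a stimulation mix containing 100uM IBMX and 25uM Ro-20-1724 for 0.5hr at room temperature. cAMP was measured by HTRF competition, 1hr.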
# [6] = target: Muscarinic acetylcholine receptor M1 (Homo sapiens) (UniProt P11229); experiment: Cholinergic receptor muscarinic 1 (CHRM1) small molecule antagonists, cell-based qHTS assay (AID 1963588); settings: CHRM1-CHO antagonist mode, calcium flux fluorescence; series mostly up to 61.5 µM; note: potency is the fitted concentration of half-maximal effect; nearly all actives have a fitted effect of over 40% in size
# Procedure, shortened: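 CHRM1-CHO calcium-flux assay, antagonist mode. Cells were seeded 18 h, dye-loaded 1 h at 37 C and given compound for 5 min at RT, then acetylcholine was added at 50nM. FDSS fluorescence was read 3 min; 15 concentrations, three runs.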
# [7] = target: D(2) dopamine receptor (Homo sapiens) (UniProt P14416); experiment: Dopamine D2 receptor (DRD2) small molecule antagonists, cell-based qHTS assay (AID 1963595; active = well fitted inhibition curve with a large enough effect in the signal ratio in the repeat runs, with a control signal flat; inconclusive = weak or mixed curves, or effect the other way; the % refers to the signal ratio; note: % is set by controls: 0 for no effect and ±100 for the full control effect); settings: HEK293-DRD2 cAMP HTRF antagonist mode; activity change, negative = inhibition: at 92.4 µM (top of the series) unless noted
# Procedure, shortened: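 DRD2-HEK293; 0.1 mM Ro20-1724; cpd 10 min RT; NKH477 200 nM + quinpirole 12 nM, 30 min RT; HTRF cAMP (cAMP-d2/anti-cAMP cryptate), 665/620 nm ratio after 1 h.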
smiles,measurement,setting,value
C=CC(=O)OCCOC(=O)CCC(=O)O,Potency,[1],active: 61.1 µM
same,Potency,[2],"inconclusive: 48.6 µM [rising, partial curve]"
same,Potency,[3],"inconclusive: 68.6 µM [activator, single point]"
c1ccc2ncccc2c1,Potency,[1],"inconclusive: 68.9 µM [activator, single point]"
same,Potency,[2],inactive
same,Potency,[3],inactive
same,Potency,[4],inactive
same,activation,[5],inconclusive: -4.79% and inconclusive: -55.7%
C=C(C)C(=O)OCCCCCCCCCC,Potency,[1],"inconclusive: 69.1 µM [activator, single point]"
same,Potency,[6],active: 42.4 µM
same,"activity change, negative = inhibition",[4],inconclusive: 2.11%
same,Potency,[5],inactive
same,Potency,[7],inactive
O=C(O)COc1nn(Cc2ccccc2)c2ccccc12,Potency,[1],"inconclusive: 13.3 µM [activator, single point]"
same,Potency,[2],"inconclusive: 23.7 µM [rising, partial curve]"
same,"activity change, negative = inhibition",[3],inconclusive: 7% [at 42.4 µM]
same,Potency,[5],inactive
same,Potency,[7],inactive
CCCCCCCCCC(=O)N(C)C,Potency,[1],active: 43.9 µM
same,Potency,[2],inactive
same,Potency,[4],inactive
same,activation,[5],inconclusive: -20.7%
CC(=O)[C@H]1[C@H](C#N)C[C@H]2[C@@H]3CC=C4C[C@@H](O)CC[C@]4(C)[C@H]3CC[C@@]21C,Potency,[1],"inconclusive: 37.1 µM [activator, single point]"
same,Potency,[2],inactive
same,"activity change, negative = inhibition",[3],inconclusive: 22.6% [at 42.4 µM]
same,activation,[5],inconclusive: -23.6% [at 42.5 µM]

# Exported bar-delimited: part of the list above
smiles | measurement | setting | value
C=CC(=O)OCCOC(=O)CCC(=O)O | Potency | [3] | inconclusive: 68.6 µM [activator, single point]
c1ccc2ncccc2c1 | Potency | [1] | inconclusive: 68.9 µM [activator, single point]
